According to publication PMC7465057:
No constants are given. Whether binding was seen depends on the method and setting. Binding seen in cells or lysates may run through a third protein. These calls come from enrichment with a bait or labelling near it, and not all partners need be listed. Where a sequence is shown, tags or fusion partners need not be part of it.

Protein sequences, listed by entry. Tags and fused reporters are not part of them.
UniProt P28482: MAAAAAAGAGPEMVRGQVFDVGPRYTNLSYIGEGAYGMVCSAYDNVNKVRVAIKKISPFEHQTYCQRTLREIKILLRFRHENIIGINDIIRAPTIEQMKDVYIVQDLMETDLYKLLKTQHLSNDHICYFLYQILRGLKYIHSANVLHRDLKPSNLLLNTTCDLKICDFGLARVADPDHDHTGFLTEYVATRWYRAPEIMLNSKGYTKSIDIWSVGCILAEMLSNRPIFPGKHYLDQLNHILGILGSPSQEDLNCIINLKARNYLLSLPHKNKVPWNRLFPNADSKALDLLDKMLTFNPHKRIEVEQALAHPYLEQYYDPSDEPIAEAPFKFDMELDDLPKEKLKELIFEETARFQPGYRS

T1: CD83-3×Flag (human CD83, full length, with C-terminal 3×Flag tag) (human) (UniProt Q01151)
T1 sequence: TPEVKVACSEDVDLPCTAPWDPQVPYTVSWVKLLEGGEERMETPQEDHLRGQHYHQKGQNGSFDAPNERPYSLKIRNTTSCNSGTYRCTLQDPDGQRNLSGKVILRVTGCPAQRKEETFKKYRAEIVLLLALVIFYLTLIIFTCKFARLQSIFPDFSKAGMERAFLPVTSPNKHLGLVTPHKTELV

B1: mitogen-activated protein kinase kinase kinase 7 (MAP3K7) (protein, UniProt O43318 1-606)
chain: MSTASAASSSSSSSAGEMIEAPSQVLNFEEIDYKEIEVEEVVGRGAFGVVCKAKWRAKDVAIKQIESESERKAFIVELRQLSRVNHPNIVKLYGACLNPVCLVMEYAEGGSLYNVLHGAEPLPYYTAAHAMSWCLQCSQGVAYLHSMQPKALIHRDLKPPNLLLVAGGTVLKICDFGTACDIQTHMTNNKGSAAWMAPEVFEGSNYSEKCDVFSWGIILWEVITRRKPFDEIGGPAFRIMWAVHNGTRPPLIKNLPKPIESLMTRCWSKDPSQRPSMEEIVKIMTHLMRYFPGADEPLQYPCQYSDEGQSNSATSTGSFMDIASTNTSNKSDTNMEQVPATNDTIKRLESKLLKNQAKQQSESGRLSLGASRGSSVESLPPTSEGKRMSADMSEIEARIAATTAYSKPKRGHRKTASFGNILDVPEIVISGNGQPRRRSIQDLTVTGTEPGQVSSRSSSPSVRMITTSGPTSEKPTRSHPWTPDDSTDTNGSDNSIPMAYLTLDHQLQPLAPCPNSKESMAVFEQHCKMAQEYMKVQTEIALLLQRKQELVAELDQDEKDQQNTSRLVQEHKKLLDENKSLSTYYQQCKKQLEVIRSQQQKRQGTS
B2: TGF-beta activated kinase 1 (MAP3K7) binding protein 1 (TAB1) (protein, UniProt Q15750 1-504)
chain: MAAQRRSLLQSEQQPSWTDDLPLCHLSGVGSASNRSYSADGKGTESHPPEDSWLKFRSENNCFLYGVFNGYDGNRVTNFVAQRLSAELLLGQLNAEHAEADVRRVLLQAFDVVERSFLESIDDALAEKASLQSQLPEGVPQHQLPPQYQKILERLKTLEREISGGAMAVVAVLLNNKLYVANVGTNRALLCKSTVDGLQVTQLNVDHTTENEDELFRLSQLGLDAGKIKQVGIICGQESTRRIGDYKVKYGYTDIDLLSAAKSKPIIAEPEIHGAQPLDGVTGFLVLMSEGLYKALEAAHGPGQANQEIAAMIDTEFAKQTSLDAVAQAVVDRVKRIHSDTFASGGERARFCPRHEDMTLLVRNFGYPLGEMSQPTPSPAPAAGGRVYPVSVPYSSAQSTSKTSVTLSLVMPSQGQMVNGAHSASTLDEATPTLTNQSPTLTLQSTNTHTQSSSSSSDGGLFRSRPAHSLPPGEDGRVEPYVDFAEFYRLWSVDHGEQSVVTAP
B3: TGF-beta activated kinase 1 (MAP3K7) binding protein 2 (TAB2) (protein, UniProt Q9NYJ8 1-693)
chain: MAQGSHQIDFQVLHDLRQKFPEVPEVVVSRCMLQNNNNLDACCAVLSQESTRYLYGEGDLNFSDDSGISGLRNHMTSLNLDLQSQNIYHHGREGSRMNGSRTLTHSISDGQLQGGQSNSELFQQEPQTAPAQVPQGFNVFGMSSSSGASNSAPHLGFHLGSKGTSSLSQQTPRFNPIMVTLAPNIQTGRNTPTSLHIHGVPPPVLNSPQGNSIYIRPYITTPGGTTRQTQQHSGWVSQFNPMNPQQVYQPSQPGPWTTCPASNPLSHTSSQQPNQQGHQTSHVYMPISSPTTSQPPTIHSSGSSQSSAHSQYNIQNISTGPRKNQIEIKLEPPQRNNSSKLRSSGPRTSSTSSSVNSQTLNRNQPTVYIAASPPNTDELMSRSQPKVYISANAATGDEQVMRNQPTLFISTNSGASAASRNMSGQVSMGPAFIHHHPPKSRAIGNNSATSPRVVVTQPNTKYTFKITVSPNKPPAVSPGVVSPTFELTNLLNHPDHYVETENIQHLTDPTLAHVDRISETRKLSMGSDDAAYTQALLVHQKARMERLQRELEIQKKKLDKLKSEVNEMENNLTRRRLKRSNSISQIPSLEEMQQLRSCNRQLQIDIDCLTKEIDLFQARGPHFNPSAIHNFYDNIGFVGPVPPKPKDQRSIIKTPKTQDTEDDEGAQWNCTACTFLNHPALIRCEQCEMPRHF
B4: TGF-beta activated kinase 1 (MAP3K7) binding protein 3 (TAB3) (protein, UniProt Q8N5C8 1-712)
chain: MAQSSPQLDIQVLHDLRQRFPEIPEGVVSQCMLQNNNNLEACCRALSQESSKYLYMEYHSPDDNRMNRNRLLHINLGIHSPSSYHPGDGAQLNGGRTLVHSSSDGHIDPQHAAGKQLICLVQEPHSAPAVVAATPNYNPFFMNEQNRSAATPPSQPPQQPSSMQTGMNPSAMQGPSPPPPPPSYMHIPRYSTNPITVTVSQNLPSGQTVPRALQILPQIPSNLYGSPGSIYIRQTSQSSSGRQTPQSTPWQSSPQGPVPHYSQRPLPVYPHQQNYQPSQYSPKQQQIPQSAYHSPPPSQCPSPFSSPQHQVQPSQLGHIFMPPSPSTTPPHPYQQGPPSYQKQGSHSVAYLPYTASSLSKGSMKKIEITVEPSQRPGTAINRSPSPISNQPSPRNQHSLYTATTPPSSSPSRGISSQPKPPFSVNPVYITYTQPTGPSCTPSPSPRVIPNPTTVFKITVGRATTENLLNLVDQEERSAAPEPIQPISVIPGSGGEKGSHKYQRSSSSGSDDYAYTQALLLHQRARMERLAKQLKLEKEELERLKSEVNGMEHDLMQRRLRRVSCTTAIPTPEEMTRLRSMNRQLQINVDCTLKEVDLLQSRGNFDPKAMNNFYDNIEPGPVVPPKPSKKDSSDPCTIERKARRISVTSKVQADIHDTQAAAADEHRTGSTQSPRTQPRDEDYEGAPWNCDSCTFLNHPALNRCEQCEMPRYT
B5: MAP2K4 (protein, UniProt P45985 1-399)
chain: MAAPSPSGGGGSGGGSGSGTPGPVGSPAPGHPAVSSMQGKRKALKLNFANPPFKSTARFTLNPNPTGVQNPHIERLRTHSIESSGKLKISPEQHWDFTAEDLKDLGEIGRGAYGSVNKMVHKPSGQIMAVKRIRSTVDEKEQKQLLMDLDVVMRSSDCPYIVQFYGALFREGDCWICMELMSTSFDKFYKYVYSVLDDVIPEEILGKITLATVKALNHLKENLKIIHRDIKPSNILLDRSGNIKLCDFGISGQLVDSIAKTRDAGCRPYMAPERIDPSASRQGYDVRSDVWSLGITLYELATGRFPYPKWNSVFDQLTQVVKGDPPQLSNSEEREFSPSFINFVNLCLTKDESKRPKYKELLKHPFILMYEERAVEVACYVCKILDQMPATPSSPMYVD
B6: MAP2K3 (protein, UniProt P46734 1-347)
chain: MESPASSQPASMPQSKGKSKRKKDLRISCMSKPPAPNPTPPRNLDSRTFITIGDRNFEVEADDLVTISELGRGAYGVVEKVRHAQSGTIMAVKRIRATVNSQEQKRLLMDLDINMRTVDCFYTVTFYGALFREGDVWICMELMDTSLDKFYRKVLDKNMTIPEDILGEIAVSIVRALEHLHSKLSVIHRDVKPSNVLINKEGHVKMCDFGISGYLVDSVAKTMDAGCKPYMAPERINPELNQKGYNVKSDVWSLGITMIEMAILRFPYESWGTPFQQLKQVVEEPSPQLPADRFSPEFVDFTAQCLRKNPAERMSYLELMEHPFFTLHKTKKTDIAAFVKEILGEDS

Biological target: T1, CD83-3×Flag (human CD83, full length, with C-terminal 3×Flag tag) (human)
Experiment: affinity purification with mass spectrometry; CD83-3×Flag-expressing stable cells and control cells lysed, immunoprecipitated with anti-Flag magnetic beads; SDS-PAGE, Coomassie bands excised, in-gel trypsin digestion, LC-MS/MS; at least two peptides

Molecule	binding
MAPK1 (from UniProt P28482 1-360)	binds
B1	binds
B2	binds
B3	binds
B4	binds
B5	binds
B6	binds
